From patent US6569404B1, “Phase shift colloids as ultrasound contrast agents” (priority 1993, dated 2003)
Some entries share one result that the patent states for a list of compounds.

Experiments:
[1] = Backscatter persistence and intensity of 2% mixtures in saline, 1000 mL water at 37° C., Hewlett-Packard 77020A; conditions: 1.0 mL in 1000 mL water at 37° C.
Experimental: The following emulsions were formulated and tested according to methods described in Example 18.
All solutions were made as a 2% solution in saline. A volume of 0.1 cc of each chemical was comminuted with 5 cc saline through a 3-way stopcock for 25 passes. A volume of 1.0 mL of the mixture was immediately injected through a 1.2 μm filter into a stirring water bath containing 1000 mL water at 37° C. The resulting backscatter was then recorded with the use of a Hewlett-Packard 77020A Ultrasound System at […].

[2] = cited from earlier work

Row | SMILES | time over which backscatter diminished [1] [min] | vapor pressure at ambient temperature [2]
1 | FC(F)(F)C(Cl)Br (stereo not shown) [Halothane] | ≤ 1 | 
2 | CCCCCCCCC [Nonane] | ≤ 1.5 | 
3 | FC1(F)C(F)(F)C(F)(F)C2(F)C(F)(F)C(F)(F)C(F)(F)C(F)(F)C2(F)C1(F)F (stereo not shown) [Perfluorodecalin] | ≤ 1.5 | 
4 | FC(F)(F)C(F)(F)C(F)(F)C(F)(F)C(F)(F)C(F)(F)F [Perfluorohexane] |  | above 20 Torr
